Source: PMC7819943, “Rice protein-binding microarrays: a tool to detect cis-acting elements near promoter regions in rice”
The other results are listed elsewhere or left out.

Target: T1, OsSMF1 (Oryza sativa, UniProt Q6ZLB0 1-436)
T1 sequence: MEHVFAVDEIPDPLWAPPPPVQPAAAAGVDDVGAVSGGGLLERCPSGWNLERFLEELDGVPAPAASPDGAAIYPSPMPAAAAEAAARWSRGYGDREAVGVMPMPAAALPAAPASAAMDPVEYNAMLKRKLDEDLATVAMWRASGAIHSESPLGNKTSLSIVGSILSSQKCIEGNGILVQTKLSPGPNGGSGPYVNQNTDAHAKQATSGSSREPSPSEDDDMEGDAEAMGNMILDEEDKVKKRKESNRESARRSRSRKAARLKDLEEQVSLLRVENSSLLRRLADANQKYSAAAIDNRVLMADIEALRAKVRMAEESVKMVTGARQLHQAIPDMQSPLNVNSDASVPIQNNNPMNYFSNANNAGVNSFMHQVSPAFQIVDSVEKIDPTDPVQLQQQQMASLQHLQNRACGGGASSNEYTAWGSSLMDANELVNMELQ
Assay: protein-binding microarray (RPBM); PBS, 2% BSA, 51.3 ng/ul salmon testes DNA, 50 uM zinc acetate, 200 nM TF, 25 C, 1 h; high values mean tight binding
Settings: protein: recombinant; tags: N-terminal polyhistidine and DsRed monomer fusion (pET32a); chain copies: 2; label: CyDye5-dUTP incorporated in the synthesized complementary strand; 3' TTTTT single-stranded linker to array surface; dsDNA, one strand shown
Method in brief: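 Transcription factors were each fused at the N-terminus to a polyhistidine tag plus DsRed and expressed in E. coli BL21-CodonPlus before Ni–NTA purification. Binding to a double-stranded custom Agilent array was carried out with 200 nM protein at 25 °C for 1 h in PBS, 2% BSA, salmon testes DNA and 50 µM zinc acetate. The binding signal is per-feature fluorescence intensity, in arbitrary units, on an Axon 4000B scanner.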

In order of falling binding signal:
1. CCATCCAAACAGCCCCATCTTATCCGATAACTACAAGCAACGGAGTCACCTAGTGCAG  31200 fluorescence intensity (a.u.)
2. AAGCACTAATGGGCCGGATAAGCTTGCCACGTAAGCCCGGCGGAGTCACCTAGTGCAG  26900 fluorescence intensity (a.u.)
3. CTGGAATGAGATTCAATCATTTTGGAGTTGACAATCCCAACGGAGTCACCTAGTGCAG  26800 fluorescence intensity (a.u.)
4. TTTCTATTCTACTGATCAGCACACAAACAGATGAACACAGCGGAGTCACCTAGTGCAG  25700 fluorescence intensity (a.u.)
5. TGGTGGCAAACAGACGATGACGGTGCCACAGATGGATGGACGGAGTCACCTAGTGCAG  24600 fluorescence intensity (a.u.)
6. TTTGCTAACTAGGATGCCACGTCAGTGAAACCAGAGATCCCGGAGTCACCTAGTGCAG  22900 fluorescence intensity (a.u.)
7. TATTCAATATTAGATTTAAATGTAACTATTTTAGTATTGTCGGAGTCACCTAGTGCAG  20300 fluorescence intensity (a.u.)
8. CAGACTGTTGGGAGCCACGTCAGCCGGCGGCCTCCGCCGTCGGAGTCACCTAGTGCAG  19200 fluorescence intensity (a.u.)
9. TGCATGTGGTTGGTCTATGTTTCTTTGAGCCGTGTTAGGACGGAGTCACCTAGTGCAG  18100 fluorescence intensity (a.u.)
10. TAATTTCTTATAGCTTGTACTACTTCTGCTTGCTCTGGTTCGGAGTCACCTAGTGCAG  15700 fluorescence intensity (a.u.)
11. ATAAAACCAATAGCGACGTGCCACGTTAGCCCATCCACGTCGGAGTCACCTAGTGCAG  12500 fluorescence intensity (a.u.)
12. TGATGGCAACGACAAGGCCACATCACCATCACCCATGTCCCGGAGTCACCTAGTGCAG  10800 fluorescence intensity (a.u.)
13. TGGGTTACCGGCGAATGACGTGGCGTTGAAGTAGGCGAACCGGAGTCACCTAGTGCAG  8560 fluorescence intensity (a.u.)
14. CGTGGAAGTCAAGAGCGATGACGTGATGAGCACCGGTGTCCGGAGTCACCTAGTGCAG  6640 fluorescence intensity (a.u.)
15. CAACTACTTATCACACATTTACACGCATACACTTGGCCACCGGAGTCACCTAGTGCAG  5160 fluorescence intensity (a.u.)
16. TCTTCCATAAGCAATTTCGCTCAATTATTGGTGAGTTGGACGGAGTCACCTAGTGCAG  4960 fluorescence intensity (a.u.)
17. ACAAGGCAACTACTCCTAGCTAGTAAGCATCAATGCATGGCGGAGTCACCTAGTGCAG  4520 fluorescence intensity (a.u.)
18. GTATTCCAGACGTATGAGGGTTGTCATGTATGACTTGTATCGGAGTCACCTAGTGCAG  4330 fluorescence intensity (a.u.)
19. ACACATGTGACTCGAATTTTCTGATAAGAATCAAGCTACTCGGAGTCACCTAGTGCAG  4230 fluorescence intensity (a.u.)
20. CATTCCAGGCAGTTTGAGGTGGGAGTATTGGATTGGTTTGCGGAGTCACCTAGTGCAG  4090 fluorescence intensity (a.u.)
21. GATTCCTCCCTCCCATTCCCCACCTCACCTCACCTCCTCCCGGAGTCACCTAGTGCAG  3840 fluorescence intensity (a.u.)
22. CGCGTCCGCAGTGTCCCACTCCCGCCACTCCTTCCACCCCCGGAGTCACCTAGTGCAG  3780 fluorescence intensity (a.u.)
23. TCACCACGTTCCTCCGCCTTCGCCGTCAGCTTTCCCCTTCCGGAGTCACCTAGTGCAG  3720 fluorescence intensity (a.u.)
24. TATTTATTATCGCGTGATGCCTGCATCAGCTTATATCTGTCGGAGTCACCTAGTGCAG  3670 fluorescence intensity (a.u.)
25. GCGTTTGGTTTGGTGTGCTCTTAAAATATTGCTCATTAGACGGAGTCACCTAGTGCAG  3670 fluorescence intensity (a.u.)
26. CCTGTTGATTGGTTAGCCCAGCCCATGATGTAGCCCATGACGGAGTCACCTAGTGCAG  3630 fluorescence intensity (a.u.)
27. TACTAGATTGAGGTGGTTAGTGACTCTAGGATCACCGCAACGGAGTCACCTAGTGCAG  3550 fluorescence intensity (a.u.)
28. ATGGGGAATCTGGCACCTTTGGCTACTGGTGATTCAGTGTCGGAGTCACCTAGTGCAG  3510 fluorescence intensity (a.u.)
29. GAGGAAGAAGGATGACATGTGGGGTCCACATGTCAGTGGGCGGAGTCACCTAGTGCAG  3510 fluorescence intensity (a.u.)
30. GTTTCTCTTCGTCGACGTCTCCTGCAAGATCGTTTGGACCCGGAGTCACCTAGTGCAG  3490 fluorescence intensity (a.u.)
31. AATACTGTCCACTAGACAAATCTCACCTGCCTCTCCATCCCGGAGTCACCTAGTGCAG  3460 fluorescence intensity (a.u.)
32. TGCTTTAGCTGCACGCTTGGTTGGCAAATGCAGGGCTTCACGGAGTCACCTAGTGCAG  3360 fluorescence intensity (a.u.)
33. CGTCGTCGCCGTCGTCGCCGCCGTTGCGCAACGACGGTTGCGGAGTCACCTAGTGCAG  3350 fluorescence intensity (a.u.)
34. ACAATTATCTAATGACGGTAGGCAATCCAGCGGATTTCTGCGGAGTCACCTAGTGCAG  3330 fluorescence intensity (a.u.)
35. GCCACCAGCATCCACTCCGCCGTCACCACCGTCCCCTTCCCGGAGTCACCTAGTGCAG  3320 fluorescence intensity (a.u.)
36. CTACTGAGTGATTTGAGTGTGTTGCAAATATTGTTTAATGCGGAGTCACCTAGTGCAG  3320 fluorescence intensity (a.u.)
37. GGCGAGACGGGGAGAGGAGGGGAGGGTGACGGCGGCCGGACGGAGTCACCTAGTGCAG  3300 fluorescence intensity (a.u.)
38. TATTCGTTGTAGACAGGGCTTCAGAACAGTGACTTGGGCCCGGAGTCACCTAGTGCAG  3290 fluorescence intensity (a.u.)
39. TTATATTCTTCGCGGGGCCGAGCCGATTCAACGCGCAGTGCGGAGTCACCTAGTGCAG  3220 fluorescence intensity (a.u.)
40. AGTACTATTTCATAAACTTCTTCGGATAATTACTCAGTAGCGGAGTCACCTAGTGCAG  3210 fluorescence intensity (a.u.)
41. GTCTCCTCGATTCCGATCCGGCGCCGGCGGCCATGGCCGACGGAGTCACCTAGTGCAG  3150 fluorescence intensity (a.u.)
42. CGGCCGCGACACGCACACGCCCACCCCACGCCCGCCGCGCCGGAGTCACCTAGTGCAG  3140 fluorescence intensity (a.u.)
